These results are taken from article PMC11374718, “Unlocking opioid neuropeptide dynamics with genetically encoded biosensors” (Nature Neuroscience, 2024).

Each structure is given as a SMILES string. “And” between values parts separate entries of the source, which are not always exact repeats. Identical values can stand only once.

For this series the following is noted: dStr slices; n = 7 slices from 4 mice; κLight1.2a readout.

For the molecule `CC[C@H](C)[C@H](NC(=O)[C@H](CCCNC(=N)N)NC(=O)[C@H](CCCNC(=N)N)NC(=O)[C@H](CC(C)C)NC(=O)[C@H](Cc1ccccc1)NC(=O)CNC(=O)CNC(=O)[C@@H](N)Cc1ccc(O)cc1)C(=O)O` [DynA8, dynorphin A1-8], the “apparent (effective) diffusion coefficient D*” value was 1.4 ± 0.4 μm^2 s^−1 and 1.4 μm^2 s^−1.
